Assay results from patent US20120028288A1, “Method for Measuring Cell Motility and System Therefor” (priority 2005, published 2012).
Some of these results come from one statement about several compounds together.

Test system: eosinophils obtained from blood samples of normal subjects
Test: Eosinophil chemotactic experiment toward various chemotactic factors (time-lapse tracking; VD plot, CRT and CLT analysis)
Settings: normal subject eosinophils; 15 minutes from start of movement; threshold printed 0.15 μm/sec

For `CSCC[C@H](NC=O)C(=O)N[C@@H](CC(C)C)C(=O)N[C@@H](Cc1ccccc1)C(=O)O` [fMLP, N-formyl-methionyl-leucyl-phenylalanine], the “Running Cell Rate (RCR): cells that continued migration for 15 minutes or longer” value was < 50%.

“CCL3: Recombinant Human MIP-1 alpha (CCL3; Macrophage Inflammatory Protein-1 alpha), purchased from PeproTech” was tested, and the “Running Cell Rate (RCR): cells that continued migration for 15 minutes or longer” value was < 50%.
